Laboratory results from US20190062420A1.
Results are given in words; binding and its absence hold for the method and conditions named. Binding calls can cover weak binding; strength is not graded here.

B1: OX40SF2IgG2sigma_R2BS29_HC-C (bispecific antibody)
heavy: QVQLVQSGAEVKKPGSSVKVSCKASGYTFKDYTMHWVRQAPGQGLEWIGGIYPNNGGSTYNQNFKDRVTLTADKSTSTAYMELSSLRSEDTAVYYCARMGYHGPHLDFDVWGQGTTVTVSSASTKGPSVFPLAPCSRSTSESTAALGCLVKDYFPEPVTVSWNSGALTSGVHTFPAVLQSSGLYSLSSVVTVPSSNFGTQTYTCNVDHKPSNTKVDKTVERKCCVECPPCPAPPAAASSVFLFPPKPKDTLMISRTPEVTCVVVDVSAEDPEVQFNWYVDGVEVHNAKTKPREEQFNSTFRVVSVLTVLHQDWLNGKEYKCKVSNKGLPSSIEKTISKTKGQPREPQVYTLPPSREEMTKNQVSLTCLVKGFYPSDIAVEWESNGQPENNYKTTPPMLDSDGSFFLYSKLTVDKSRWQQGNVFSCSVMHEALHNHYTQKSLSLSPGKGGGGGSGGGGSGGGGSGGGGSLPAPKNLVVSRVTEDSARLSWTAPDAAFDSFPIYYWEYRVGGEAIVLTVPGSERSYDLTGLKPGTEYFVYINGVKGGEESRPLSAIFTT
light: DIQMTQSPSSLSASVGDRVTITCKASQDVGAAVAWYQQKPGKAPKLLIYWASTRHTGVPSRFSGSGSGTDFTLTISSLQPEDFATYYCQQYINYPLTFGGGTKVEIKRTVAAPSVFIFPPSDEQLKSGTASVVCLLNNFYPREAKVQWKVDNALQSGNSQESVTEQDSKDSTYSLSSTLTLSKADYEKHKVYACEVTHQGLSSPVTKSFNRGEC
B2: OX40SF2IgG2sigma_R2BS29_LC-C (bispecific antibody)
heavy: QVQLVQSGAEVKKPGSSVKVSCKASGYTFKDYTMHWVRQAPGQGLEWIGGIYPNNGGSTYNQNFKDRVTLTADKSTSTAYMELSSLRSEDTAVYYCARMGYHGPHLDFDVWGQGTTVTVSSASTKGPSVFPLAPCSRSTSESTAALGCLVKDYFPEPVTVSWNSGALTSGVHTFPAVLQSSGLYSLSSVVTVPSSNFGTQTYTCNVDHKPSNTKVDKTVERKCCVECPPCPAPPAAASSVFLFPPKPKDTLMISRTPEVTCVVVDVSAEDPEVQFNWYVDGVEVHNAKTKPREEQFNSTFRVVSVLTVLHQDWLNGKEYKCKVSNKGLPSSIEKTISKTKGQPREPQVYTLPPSREEMTKNQVSLTCLVKGFYPSDIAVEWESNGQPENNYKTTPPMLDSDGSFFLYSKLTVDKSRWQQGNVFSCSVMHEALHNHYTQKSLSLSPGK
light: DIQMTQSPSSLSASVGDRVTITCKASQDVGAAVAWYQQKPGKAPKLLIYWASTRHTGVPSRFSGSGSGTDFTLTISSLQPEDFATYYCQQYINYPLTFGGGTKVEIKRTVAAPSVFIFPPSDEQLKSGTASVVCLLNNFYPREAKVQWKVDNALQSGNSQESVTEQDSKDSTYSLSSTLTLSKADYEKHKVYACEVTHQGLSSPVTKSFNRGECGGGGSGGGGSGGGGSGGGGSMLPAPKNLVVSRVTEDSARLSWTAPDAAFDSFPIYYWEYRVGGEAIVLTVPGSERSYDLTGLKPGTEYFVYINGVKGGEESRPLSAIFTT
B3: OX40SF2IgG2sigma_R2BS29_HC-N (bispecific antibody)
heavy: LPAPKNLVVSRVTEDSARLSWTAPDAAFDSFPIYYWEYRVGGEAIVLTVPGSERSYDLTGLKPGTEYFVYINGVKGGEESRPLSAIFTTGGGGSGGGGSGGGGSGGGGSQVQLVQSGAEVKKPGSSVKVSCKASGYTFKDYTMHWVRQAPGQGLEWIGGIYPNNGGSTYNQNFKDRVTLTADKSTSTAYMELSSLRSEDTAVYYCARMGYHGPHLDFDVWGQGTTVTVSSASTKGPSVFPLAPCSRSTSESTAALGCLVKDYFPEPVTVSWNSGALTSGVHTFPAVLQSSGLYSLSSVVTVPSSNFGTQTYTCNVDHKPSNTKVDKTVERKCCVECPPCPAPPAAASSVFLFPPKPKDTLMISRTPEVTCVVVDVSAEDPEVQFNWYVDGVEVHNAKTKPREEQFNSTFRVVSVLTVLHQDWLNGKEYKCKVSNKGLPSSIEKTISKTKGQPREPQVYTLPPSREEMTKNQVSLTCLVKGFYPSDIAVEWESNGQPENNYKTTPPMLDSDGSFFLYSKLTVDKSRWQQGNVFSCSVMHEALHNHYTQKSLSLSPGK
light: B1 light
B4: OX40SF2IgG2sigma_R2BS29_LC-N (bispecific antibody)
heavy: B2 heavy
light: LPAPKNLVVSRVTEDSARLSWTAPDAAFDSFPIYYWEYRVGGEAIVLTVPGSERSYDLTGLKPGTEYFVYINGVKGGEESRPLSAIFTTGGGGSGGGGSGGGGSGGGGSDIQMTQSPSSLSASVGDRVTITCKASQDVGAAVAWYQQKPGKAPKLLIYWASTRHTGVPSRFSGSGSGTDFTLTISSLQPEDFATYYCQQYINYPLTFGGGTKVEIKRTVAAPSVFIFPPSDEQLKSGTASVVCLLNNFYPREAKVQWKVDNALQSGNSQESVTEQDSKDSTYSLSSTLTLSKADYEKHKVYACEVTHQGLSSPVTKSFNRGEC

target: FcγRIIA protein (human); test: ELISA; FcγRIIA protein coated on plate, anti-human IgG-HRP detection

binding, binds:
B1, B2, B3, B4
